Laboratory results as given in patent US20240261274A1, “TREATMENT OF MYC-DRIVEN CANCERS WITH GSPT1 DEGRADERS” (MONTE ROSA THERAPEUTICS, INC., priority 2021, published 2024).
Some entries share one result that the patent states for a list of compounds.

Chains of the proteins cited; added tags and fusions are not shown. Lines headed by an entry give the natural chain unless they say otherwise; changes in a name come on top.
UniProt P15170, whole entry: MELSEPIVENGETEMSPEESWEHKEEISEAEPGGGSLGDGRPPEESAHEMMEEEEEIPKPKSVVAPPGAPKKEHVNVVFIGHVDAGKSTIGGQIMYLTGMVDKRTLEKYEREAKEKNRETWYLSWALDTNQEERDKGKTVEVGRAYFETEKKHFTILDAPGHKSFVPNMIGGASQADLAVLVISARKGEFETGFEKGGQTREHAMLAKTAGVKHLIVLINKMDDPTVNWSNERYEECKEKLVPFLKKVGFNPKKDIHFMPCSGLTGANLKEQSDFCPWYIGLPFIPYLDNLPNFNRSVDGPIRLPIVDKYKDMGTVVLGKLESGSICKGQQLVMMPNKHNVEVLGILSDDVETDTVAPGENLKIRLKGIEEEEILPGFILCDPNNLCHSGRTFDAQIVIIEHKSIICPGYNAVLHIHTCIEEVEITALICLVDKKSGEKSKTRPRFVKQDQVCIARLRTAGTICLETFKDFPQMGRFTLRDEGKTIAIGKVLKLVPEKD
UniProt Q96SW2: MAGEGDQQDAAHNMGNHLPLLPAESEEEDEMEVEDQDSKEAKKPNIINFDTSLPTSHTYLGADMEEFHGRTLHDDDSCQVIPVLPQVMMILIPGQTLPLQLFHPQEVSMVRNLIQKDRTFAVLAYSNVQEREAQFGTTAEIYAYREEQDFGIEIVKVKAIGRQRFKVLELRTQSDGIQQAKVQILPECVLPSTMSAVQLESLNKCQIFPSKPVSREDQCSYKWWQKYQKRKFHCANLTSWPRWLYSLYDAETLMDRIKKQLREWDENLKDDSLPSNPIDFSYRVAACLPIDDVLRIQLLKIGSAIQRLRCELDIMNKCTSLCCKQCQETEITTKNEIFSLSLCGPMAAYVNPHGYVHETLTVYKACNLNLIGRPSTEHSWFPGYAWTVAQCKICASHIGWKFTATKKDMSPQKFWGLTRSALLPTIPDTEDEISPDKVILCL

What follows are molecules tested against GSPT1 (Homo sapiens, UniProt P15170+Q96SW2) (assay: GSPT1 degradation immunofluorescence assay in CAL-51 cells). Conditions: bound stated in text b1610 (code A).
Format: cell-based
Set-up: endogenous in cells; host or cells: CAL-51 (DSMZ ACC302)
Experimental: CAL-51 cells were purchased from DSMZ (cat. Number ACC302), sub-cultured in 90% Dulbecco's MEM (4.5 g/L glucose, Gibco 11965)+10% heat inactivated FBS (BioConcept, 2-01F1361) and incubated at 37° C., 5% CO2. For the assay, imaging microtiterplate Cell Carrier 96 Ultra (Perkin Elmer 6055302) were pre-coated with Fibronectin (Sigma F085, 30 μl at 0.2 μg/ml) in PBS (100 μl, Gibco 14190) for 45 min at room temperature, rinsed with PBS and CAL-51 cells (30K cells/well) were plated and let to adhere overnight. Cells were treated with compounds typically using a serial dilution ranging from 30 μM to 0.1 nM for 6 hours. Compounds were stored at 10 mM DMSO stocks. Vehicle (DMSO), positive (CC-885, 10 μM) and rescue controls (positive control plus 0.2 μM bortezomib) were also included at this stage. Cells were subsequently rinsed with PBS and fixed in 10% Formalin solution (50 μl, Sigma HT5011)) for 20 mins at room temperature. Following three consecutive PBS washes (100 μl), cells were permeabilized in 0.1% Triton X-100 in PBS (Sigma 93443, 50 μl) for 15 mins at room temperature. Following three further PBS washes, 50 μl blocking buffer (1% BSA, Sigma A4503, in PBS) was added for 45 min for signal-to-noise reduction. Primary antibody (human GSPT1, Sigma HPA052488) was diluted in blocking buffer (dil. 1/300, 35 μl/well) and incubated with the cells overnight at 4° C. After three PBS washes, Alexa-fluor 488 coupled secondary antibodies (Invitrogen, A32731, dil. 1/1000), Alexa-fluor 647-Phalloidin (Invitrogen, A22287, dil. 1/200) and DAPI (Thermo, #62248, dil. 1/1000) were diluted in blocking buffer and incubated with the samples for 2 hours at room temperature. After three final PBS washes, samples were conserved in 100 μl PBS in the dark, until measurement. Image acquisition was performed on the Operetta High-Content Imager (Perkin-Elmer). Fluorescence intensity of Alexa-Fluor 488 (GSPT1), Alexa-Fluor 647 (Actin) and DAPI (Nucleus) were measured. For the determination of GSPT1 DC50 values, a custom algorithm implemented in the PerkinElmer image analysis software Harmony-Acapella® was developed. After user-defined setting of adjustment parameters, the analysis was run identically without human intervention for all image fields. DAPI staining of the nuclei was used to determine the location of cells using standard nuclei detection modules. Segmentation artifacts were removed by threshold-based filters for area, roundness and intensity. The outline of the cells was determined analogously from the sum of the normalized, smoothed DAPI and Actin channel, starting from each nucleus. The Alexa-Fluor 488 (GSPT1) signal intensity in each cell was finally measured, in order to obtain a Mean intensity per cell. GSPT1 degradation (DC50) was calculated after normalization to controls and data import in CDD vault Database, using non-linear regression.

DC50, ≤ 30 nM:
COc1ccc(NC(=O)NCc2ccc3c(c2)C(=O)N(C2CCC(=O)NC2=O)C3)cc1 (stereo not shown) [Compound 5], Cc1ccc(NC(=O)NCc2ccc3c(c2)C(=O)N(C2CCC(=O)NC2=O)C3)cc1Cl (stereo not shown) [Compound 8], O=C1CCC(N2Cc3ccc(CNC(=O)Nc4ccc(Br)cc4)cc3C2=O)C(=O)N1 (stereo not shown) [Compound 9], CC(C)(C)c1ccccc1NC(=O)NCc1ccc2c(c1)C(=O)N(C1CCC(=O)NC1=O)C2 (stereo not shown) [Compound 11], CCOc1ccc(NC(=O)NCc2ccc3c(c2)C(=O)N(C2CCC(=O)NC2=O)C3)cc1 (stereo not shown) [Compound 16], COc1ccc(C)cc1NC(=O)NCc1ccc2c(c1)C(=O)N(C1CCC(=O)NC1=O)C2 (stereo not shown) [Compound 17], CCc1ccc(NC(=O)NCc2ccc3c(c2)C(=O)N(C2CCC(=O)NC2=O)C3)cc1 (stereo not shown) [Compound 18], Cc1c(Cl)cccc1NC(=O)NCc1ccc2c(c1)C(=O)N(C1CCC(=O)NC1=O)C2 (stereo not shown) [Compound 19], Cc1cc(C)cc(NC(=O)NCc2ccc3c(c2)C(=O)N(C2CCC(=O)NC2=O)C3)c1 (stereo not shown) [Compound 20], Cc1ccc(NC(=O)NCc2ccc3c(c2)C(=O)N(C2CCC(=O)NC2=O)C3)cc1 (stereo not shown) [Compound 21], CCOc1ccccc1NC(=O)NCc1ccc2c(c1)C(=O)N(C1CCC(=O)NC1=O)C2 (stereo not shown) [Compound 22], COc1ccc(NC(=O)NCc2ccc3c(c2)C(=O)N(C2CCC(=O)NC2=O)C3)c(C)c1 (stereo not shown) [Compound 23], Cc1cccc(C)c1NC(=O)NCc1ccc2c(c1)C(=O)N(C1CCC(=O)NC1=O)C2 (stereo not shown) [Compound 25], O=C1CCC(N2Cc3ccc(CNC(=O)NC4CCCCC4)cc3C2=O)C(=O)N1 (stereo not shown) [Compound 29], O=C1CCC(N2Cc3ccc(CNC(=O)Nc4cc(Cl)ccc4Cl)cc3C2=O)C(=O)N1 (stereo not shown) [Compound 35], CCc1ccccc1NC(=O)NCc1ccc2c(c1)C(=O)N(C1CCC(=O)NC1=O)C2 (stereo not shown) [Compound 36], Cc1ccccc1NC(=O)NCc1ccc2c(c1)C(=O)N(C1CCC(=O)NC1=O)C2 (stereo not shown) [Compound 37], O=C1CCC(N2Cc3ccc(CNC(=O)Nc4cc(Cl)cc(Cl)c4)cc3C2=O)C(=O)N1 (stereo not shown) [Compound 38], O=C1CCC(N2Cc3ccc(CNC(=O)Nc4ccc(F)c(F)c4)cc3C2=O)C(=O)N1 (stereo not shown) [Compound 39], O=C1CCC(N2Cc3ccc(CNC(=O)NC4CCCc5ccccc54)cc3C2=O)C(=O)N1 (stereo not shown) [Compound 40], O=C1CCC(N2Cc3ccc(CNC(=O)Nc4ccc(F)c(Cl)c4)cc3C2=O)C(=O)N1 (stereo not shown) [Compound 42], Cc1cccc(NC(=O)NCc2ccc3c(c2)C(=O)N(C2CCC(=O)NC2=O)C3)c1 (stereo not shown) [Compound 43], Cc1cccc(NC(=O)NCc2ccc3c(c2)C(=O)N(C2CCC(=O)NC2=O)C3)c1C (stereo not shown) [Compound 44], O=C1CCC(N2Cc3ccc(CNC(=O)Nc4ccc(Cl)cc4Cl)cc3C2=O)C(=O)N1 (stereo not shown) [Compound 45], O=C1CCC(N2Cc3ccc(CNC(=O)Nc4cccc(C(F)(F)F)c4)cc3C2=O)C(=O)N1 (stereo not shown) [Compound 47], O=C1CCC(N2Cc3ccc(CNC(=O)Nc4ccccc4C(F)(F)F)cc3C2=O)C(=O)N1 (stereo not shown) [Compound 49], O=C1CCC(N2Cc3ccc(CNC(=O)Nc4cccc(Cl)c4Cl)cc3C2=O)C(=O)N1 (stereo not shown) [Compound 50], COc1cccc(CNC(=O)NCc2ccc3c(c2)C(=O)N(C2CCC(=O)NC2=O)C3)c1 (stereo not shown) [Compound 53], C[C@@H](NC(=O)NCc1ccc2c(c1)C(=O)N(C1CCC(=O)NC1=O)C2)c1ccccc1 (stereo partly shown) [Compound 54], C[C@H](NC(=O)NCc1ccc2c(c1)C(=O)N(C1CCC(=O)NC1=O)C2)c1ccccc1 (stereo partly shown) [Compound 55], CC(C)(C)c1ccc(NC(=O)NCc2ccc3c(c2)C(=O)N(C2CCC(=O)NC2=O)C3)cc1 (stereo not shown) [Compound 56], CC(C)c1ccc(NC(=O)NCc2ccc3c(c2)C(=O)N(C2CCC(=O)NC2=O)C3)cc1 (stereo not shown) [Compound 57], COc1ccc(NC(=O)NCc2ccc3c(c2)C(=O)N(C2CCC(=O)NC2=O)C3)cc1Cl (stereo not shown) [Compound 59], COc1ccccc1CNC(=O)NCc1ccc2c(c1)C(=O)N(C1CCC(=O)NC1=O)C2 (stereo not shown) [Compound 60], Cc1cc(NC(=O)NCc2ccc3c(c2)C(=O)N(C2CCC(=O)NC2=O)C3)ccc1Cl (stereo not shown) [Compound 61], Cc1ccc(F)c(NC(=O)NCc2ccc3c(c2)C(=O)N(C2CCC(=O)NC2=O)C3)c1 (stereo not shown) [Compound 67], O=C1CCC(N2Cc3ccc(CNC(=O)Nc4ccc(-c5ccccc5)cc4)cc3C2=O)C(=O)N1 (stereo not shown) [Compound 71]
